From article PMC10976477 (RSC Advances, 2024)

System: SH-SY5Y cells
Assay: SH-SY5Y neuroblastoma cell toxicity
Assay type: cell-based, human
Conditions: 10–100 μM, 48 h incubation, MTT

`COc1cc2c(cc1OC)C(=O)C(CC1CCN(Cc3ccccc3)CC1)C2` (stereo not shown) [Donepezil, reference compound] was tested. Which “neurotoxicity / cytotoxicity on SH-SY5Y cells” value did it give?
Its value is “no cytotoxicity”.
